Results as given in patent publication US6403302.

The chains behind the UniProt entries cited, without tags or fusion partners. Residues count along the entry.
UniProt P08047, 270-785: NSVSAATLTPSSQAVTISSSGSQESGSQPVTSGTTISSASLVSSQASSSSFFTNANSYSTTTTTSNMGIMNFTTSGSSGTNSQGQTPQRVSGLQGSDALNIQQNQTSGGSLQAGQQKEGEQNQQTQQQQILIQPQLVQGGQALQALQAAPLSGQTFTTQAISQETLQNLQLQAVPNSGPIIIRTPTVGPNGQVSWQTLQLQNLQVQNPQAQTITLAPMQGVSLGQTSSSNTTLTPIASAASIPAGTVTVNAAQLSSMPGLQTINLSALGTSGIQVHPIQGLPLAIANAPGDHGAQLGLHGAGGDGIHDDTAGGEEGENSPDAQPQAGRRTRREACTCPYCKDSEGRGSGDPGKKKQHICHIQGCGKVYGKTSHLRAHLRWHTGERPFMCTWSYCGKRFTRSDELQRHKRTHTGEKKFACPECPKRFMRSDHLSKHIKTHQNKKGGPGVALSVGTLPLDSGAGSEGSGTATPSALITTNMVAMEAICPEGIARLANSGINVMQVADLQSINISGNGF

Target: Sp1-516C (Sp1 C-terminal 516 amino acids) (Homo sapiens) (UniProt P08047)
Experiment: activity assay
Settings: in vitro transcription in Drosophila Kc nuclear extract, 10 mM MgCl2, 70 mM KCl, 22 C; little activation when triple helix (oligomer 1) preformed; purified recombinant protein

Sequence: GATCTGAGAAAGGAGAGAAAAAGGGGCGGGGCATGCATTG / ACTCTTTCCTCTCTTTTTCCCCGCCCCGTACGTAACCTAG
- activity on this sequence (fold activation): 1.5
